Experimental data from PMC10759362.
Results are given in words; binding and its absence hold for the method and conditions named. In cells and extracts the contact can be indirect. Some binding calls cover weakened binding; strength is not graded here.

Target: T1, Phosphoglycerate kinase 1 (PGK1) (human) (UniProt P00558)
T1 sequence: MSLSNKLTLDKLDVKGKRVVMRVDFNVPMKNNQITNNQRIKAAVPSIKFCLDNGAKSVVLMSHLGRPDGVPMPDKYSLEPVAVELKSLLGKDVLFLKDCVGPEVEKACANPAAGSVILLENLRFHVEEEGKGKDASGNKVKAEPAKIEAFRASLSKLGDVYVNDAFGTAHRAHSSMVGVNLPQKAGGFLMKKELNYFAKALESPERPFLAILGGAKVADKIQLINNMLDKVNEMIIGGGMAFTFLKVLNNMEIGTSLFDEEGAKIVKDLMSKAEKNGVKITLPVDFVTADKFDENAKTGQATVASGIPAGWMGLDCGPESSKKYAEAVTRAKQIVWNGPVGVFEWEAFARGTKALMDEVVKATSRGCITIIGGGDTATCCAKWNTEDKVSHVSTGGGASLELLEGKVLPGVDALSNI
Experiment: co-IP; Classic IP/Co-IP kit (Pierce); cells with indicated treatment (OGT shRNA or pENTER-OGT) lysed in IP lysis buffer, supernatants incubated with the appropriate antibodies, protein A/G-agarose beads, SDS-PAGE and Western blotting

B1: O-GlcNAc transferase (OGT) (enzyme, UniProt O15294 1-1046)
chain: MASSVGNVADSTEPTKRMLSFQGLAELAHREYQAGDFEAAERHCMQLWRQEPDNTGVLLLLSSIHFQCRRLDRSAHFSTLAIKQNPLLAEAYSNLGNVYKERGQLQEAIEHYRHALRLKPDFIDGYINLAAALVAAGDMEGAVQAYVSALQYNPDLYCVRSDLGNLLKALGRLEEAKACYLKAIETQPNFAVAWSNLGCVFNAQGEIWLAIHHFEKAVTLDPNFLDAYINLGNVLKEARIFDRAVAAYLRALSLSPNHAVVHGNLACVYYEQGLIDLAIDTYRRAIELQPHFPDAYCNLANALKEKGSVAEAEDCYNTALRLCPTHADSLNNLANIKREQGNIEEAVRLYRKALEVFPEFAAAHSNLASVLQQQGKLQEALMHYKEAIRISPTFADAYSNMGNTLKEMQDVQGALQCYTRAIQINPAFADAHSNLASIHKDSGNIPEAIASYRTALKLKPDFPDAYCNLAHCLQIVCDWTDYDERMKKLVSIVADQLEKNRLPSVHPHHSMLYPLSHGFRKAIAERHGNLCLDKINVLHKPPYEHPKDLKLSDGRLRVGYVSSDFGNHPTSHLMQSIPGMHNPDKFEVFCYALSPDDGTNFRVKVMAEANHFIDLSQIPCNGKAADRIHQDGIHILVNMNGYTKGARNELFALRPAPIQAMWLGYPGTSGALFMDYIITDQETSPAEVAEQYSEKLAYMPHTFFIGDHANMFPHLKKKAVIDFKSNGHIYDNRIVLNGIDLKAFLDSLPDVKIVKMKCPDGGDNADSSNTALNMPVIPMNTIAEAVIEMINRGQIQITINGFSISNGLATTQINNKAATGEEVPRTIIVTTRSQYGLPEDAIVYCNFNQLYKIDPSTLQMWANILKRVPNSVLWLLRFPAVGEPNIQQYAQNMGLPQNRIIFSPVAPKEEHVRRGQLADVCLDTPLCNGHTTGMDVLWAGTPMVTMPGETLASRVAASQLTCLGCLELIAKNRQEYEDIAVKLGTDLEYLKKVRGKVWKQRISSPLFNTKQYTMELERLYLQMWEHYAAGNKPDHMIKPVEVTESA
B1 was tested, and the binding was “binds”.
